Results taken from patent US12616753B2, “HSP70 inhibitors and methods of using same” (THE WISTAR INSTITUTE, priority 2020, dated 2026).

Tested on: 1205Lu melanoma cells
Assay: SILAC proteomics of isolated mitochondria
Assay type: cell-based, human
Details: 1 μM, six hours

c1ccc(-c2cn3nc(CCCCCC[P+](c4ccccc4)(c4ccccc4)c4ccccc4)sc3n2)cc1 [AP-4-139B, Triphenyl(6-(6-phenylimidazo[2,1-b][1,3,4]thiadiazol-2-yl)hexyl)phosphonium bromide]
mitochondrial proteins downregulated: 462 proteins
mitochondrial proteins downregulated at least 3-fold: 125 proteins
proteins with >10-fold decreased abundance in the mitochondria: fourteen
